# Reference: PMC7819943, “Rice protein-binding microarrays: a tool to detect cis-acting elements near promoter regions in rice”
# Sequences of proteins named here, by UniProt entry; tags and fusion partners are left off.
# UniProt Q0JBA9, entry or part of it: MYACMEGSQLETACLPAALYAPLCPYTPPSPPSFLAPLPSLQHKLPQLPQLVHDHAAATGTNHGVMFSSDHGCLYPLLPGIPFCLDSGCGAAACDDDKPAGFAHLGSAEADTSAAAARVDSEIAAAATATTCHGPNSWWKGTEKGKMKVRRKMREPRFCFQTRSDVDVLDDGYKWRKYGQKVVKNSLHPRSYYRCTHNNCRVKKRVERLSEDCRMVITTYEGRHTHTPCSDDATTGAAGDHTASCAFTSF
# The list shows a part of the results.
# Biological target: OsWRKY34 (Oryza sativa, UniProt Q0JBA9 1-250)
# Assay: protein-binding microarray (RPBM); PBS, 2% BSA, 51.3 ng/ul salmon testes DNA, 50 uM zinc acetate, 200 nM TF, 25 C, 1 h; high values mean tight binding
# Details: protein: recombinant; tags: N-terminal polyhistidine and DsRed monomer fusion (pET32a); label: CyDye5-dUTP incorporated in the synthesized complementary strand; 3' TTTTT single-stranded linker to array surface; dsDNA, one strand shown
# Method in brief: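 Polyhistidine-tagged DsRed fusions of transcription factors, joined at the N-terminus, were expressed in E. coli BL21-CodonPlus and isolated on Ni–NTA. They were incubated at 200 nM for 1 h at 25 °C on a custom Agilent array, double-stranded and BSA-blocked, in PBS with 2% BSA, salmon testes DNA and 50 µM zinc acetate. The binding signal is per-feature fluorescence intensity (arbitrary units) read on an Axon 4000B scanner after washing.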
row,Sequence,binding signal
1,TTGGTTTTTGGTTGACAGAAGGATTTTTCTCGCCTTTTTTCGGAGTCACCTAGTGCAG,8560 fluorescence intensity (a.u.)
2,TGGTTTGCATCTCTTCTTGCTCTTTGGAGGATTTACTACTCGGAGTCACCTAGTGCAG,9510 fluorescence intensity (a.u.)
3,TCCTTTCTGTTTCAACCATAGGCCCATTAGGCCCACGTACCGGAGTCACCTAGTGCAG,8850 fluorescence intensity (a.u.)
4,TCTCGTTGTCGTCATCATATTTGGATCTCCTATGGCATTTCGGAGTCACCTAGTGCAG,8110 fluorescence intensity (a.u.)
5,CATTTTTTCGGCTTCCATCGGCCGCACTTTTGACAGCATTCGGAGTCACCTAGTGCAG,11500 fluorescence intensity (a.u.)
6,CTCCTACTCGGCGCACGTCCATGTCGTCTTCATCCTCAACCGGAGTCACCTAGTGCAG,8910 fluorescence intensity (a.u.)
7,GCTCTCACTCTCTCTCTAGATCTCTCTCTCTCTCCTACTGCGGAGTCACCTAGTGCAG,9920 fluorescence intensity (a.u.)
8,CCCCTGCCTGCATCAACCCTCATATGTTGTCCTTGGCGAACGGAGTCACCTAGTGCAG,10900 fluorescence intensity (a.u.)
9,CGTGCAACCTCAACCACTCCCACCTCTACCTTATCTCTTCCGGAGTCACCTAGTGCAG,9010 fluorescence intensity (a.u.)
10,TCTGACTCCTTGCACCTCTATTGGATTTTTTTGGTCACTTCGGAGTCACCTAGTGCAG,8030 fluorescence intensity (a.u.)
11,CCCAGCAACTCGTACACCTCCCGGTGCATCACAAATTCCTCGGAGTCACCTAGTGCAG,8920 fluorescence intensity (a.u.)
12,GTGGCCACCGTGGGCCCCACCATTTCTAAATTAATTTTTTCGGAGTCACCTAGTGCAG,10800 fluorescence intensity (a.u.)
13,TATTTTTTACCCGGCCTCAACATCCAACTGGGATATTTTACGGAGTCACCTAGTGCAG,10600 fluorescence intensity (a.u.)
14,TGGAGATGAGTATGCACTAACCTGCCTATATTTTTTTTCTCGGAGTCACCTAGTGCAG,9450 fluorescence intensity (a.u.)
15,CTTCCTCCGTCACCATCAGCTCCCCGCGCGCGCGTGCATACGGAGTCACCTAGTGCAG,9440 fluorescence intensity (a.u.)
16,CCCATCTCGAGTGCCATCCTCTTCTCAATGAGAGTAACCACGGAGTCACCTAGTGCAG,8220 fluorescence intensity (a.u.)
17,GTTTCTGTACTTGCAACCCTCAGTTTGATGAGCGAGTCCACGGAGTCACCTAGTGCAG,8890 fluorescence intensity (a.u.)
18,CGGCGGCGAGTAGGGCCAGCGCTCGAGCGTGGTGGGGCGGCGGAGTCACCTAGTGCAG,8370 fluorescence intensity (a.u.)
19,CGGTTTGGTTTCGATTTATTTTAGAATTTTGGCACTTTTCCGGAGTCACCTAGTGCAG,10800 fluorescence intensity (a.u.)
20,AGTGTACTTTTCCCTTCCTTGTTTGTGAGCTCACCGAGCTCGGAGTCACCTAGTGCAG,8410 fluorescence intensity (a.u.)
21,CCAGTGGGCGGGCTCTCTCCCTCTTCCTCCTCCGCTCCGCCGGAGTCACCTAGTGCAG,10000 fluorescence intensity (a.u.)

# Quoted at random: two records from the list.
row,Sequence,binding signal
21,CCAGTGGGCGGGCTCTCTCCCTCTTCCTCCTCCGCTCCGCCGGAGTCACCTAGTGCAG,10000 fluorescence intensity (a.u.)
11,CCCAGCAACTCGTACACCTCCCGGTGCATCACAAATTCCTCGGAGTCACCTAGTGCAG,8920 fluorescence intensity (a.u.)

# (next part)

row,Sequence,binding signal
1,AGCTGTGTTTTTCAGCTTCTAGGTTCTAGTTCGTTTTTTGCGGAGTCACCTAGTGCAG,10400 fluorescence intensity (a.u.)
2,GATTCCCGATTCGCAGTCGGTTCTCTGGTCGCCTACATATCGGAGTCACCTAGTGCAG,8800 fluorescence intensity (a.u.)
3,CCTAATCATCCCTATCAACACACCTAAGCTCACCAAATTCCGGAGTCACCTAGTGCAG,8620 fluorescence intensity (a.u.)
4,ATCATCCATATCCAGCTATACTATACTACTCGATCCCTTCCGGAGTCACCTAGTGCAG,10200 fluorescence intensity (a.u.)
5,CACGACACGCATGAAGCACCTTGCAACCACCACCGTCCTCCGGAGTCACCTAGTGCAG,8200 fluorescence intensity (a.u.)
6,TTTGGGGTTTGAGAAGGTTGAGGAGGAGTTGGGAGGTTGACGGAGTCACCTAGTGCAG,9580 fluorescence intensity (a.u.)
7,AATCCCTATTGCCTACAAATGCACGTTCACATTGTCGTCACGGAGTCACCTAGTGCAG,8890 fluorescence intensity (a.u.)
8,TTCTGAATGTGATCACCTGACAAATTTGTTCAGAGTTATCCGGAGTCACCTAGTGCAG,9600 fluorescence intensity (a.u.)
9,TCTCGAACGTTCTATTTTAATTTCCCTGACACGTTCGTCTCGGAGTCACCTAGTGCAG,8790 fluorescence intensity (a.u.)
10,AGTTTTTGGTAGTTTAGTTTGATACACCACTTCGTTTGATCGGAGTCACCTAGTGCAG,18600 fluorescence intensity (a.u.)
11,AGCATTTACGCGTGGTCTCTGAAGTATATAACGGTCTGTCCGGAGTCACCTAGTGCAG,8140 fluorescence intensity (a.u.)
12,ATCACAGGCAAAATCAACGATGAACTTGGAAGGGTAGGGTCGGAGTCACCTAGTGCAG,8360 fluorescence intensity (a.u.)
13,GCTCTACAATACTCCCTTTGTTCCAAAATACCTTTTGTTCCGGAGTCACCTAGTGCAG,11000 fluorescence intensity (a.u.)
14,GTCCCATTTCGGTATTCAACTATTTCTATTTTCTCCTCTCCGGAGTCACCTAGTGCAG,9860 fluorescence intensity (a.u.)
15,ATAATCCTTGTCTTTTTGTTTGCTTGATGTCGTATCGTGTCGGAGTCACCTAGTGCAG,9360 fluorescence intensity (a.u.)
16,CAGTGGGATCAGACGTAGACGCGTGGTGTGGTTGTATTTTCGGAGTCACCTAGTGCAG,13600 fluorescence intensity (a.u.)
17,ACCTTGACGCCTTGTTATGTGTAGTCTTATTAATATACTACGGAGTCACCTAGTGCAG,8680 fluorescence intensity (a.u.)
18,GCCCGCTGTTTTTCTCTCTCCTTATTTAACTTCTTAAAATCGGAGTCACCTAGTGCAG,9470 fluorescence intensity (a.u.)
19,CGTATCCTTTTTGCTTTTCATAAAGTTCACCTTCTTTTCCCGGAGTCACCTAGTGCAG,12100 fluorescence intensity (a.u.)
20,GTGCATGTGTAGGGAGGGCACAATGGAGGGGTGTTTTTTTCGGAGTCACCTAGTGCAG,15000 fluorescence intensity (a.u.)
21,TGTACACCTCTCCCACACTCCTTGCTCTCTCGTTTGCTCTCGGAGTCACCTAGTGCAG,8090 fluorescence intensity (a.u.)
